The other results are listed elsewhere or left out. Small differences around the control level are noise.

Chains of the proteins cited; added tags and fusions are not shown. Lines headed by an entry give the natural chain unless they say otherwise; changes in a name come on top.
UniProt Q4PJX1: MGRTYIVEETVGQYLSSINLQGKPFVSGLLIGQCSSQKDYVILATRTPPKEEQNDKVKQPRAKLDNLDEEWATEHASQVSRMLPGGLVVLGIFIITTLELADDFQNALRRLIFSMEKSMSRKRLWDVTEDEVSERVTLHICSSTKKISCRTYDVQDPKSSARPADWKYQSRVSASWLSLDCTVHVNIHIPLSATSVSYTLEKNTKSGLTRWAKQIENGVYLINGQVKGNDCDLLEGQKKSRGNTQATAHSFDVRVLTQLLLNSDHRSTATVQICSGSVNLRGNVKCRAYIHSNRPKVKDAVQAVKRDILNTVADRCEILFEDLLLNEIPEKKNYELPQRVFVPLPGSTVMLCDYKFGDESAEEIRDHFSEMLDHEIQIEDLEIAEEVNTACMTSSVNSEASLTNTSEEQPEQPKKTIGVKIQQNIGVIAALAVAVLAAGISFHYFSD
UniProt Q3V3Q7, whole entry: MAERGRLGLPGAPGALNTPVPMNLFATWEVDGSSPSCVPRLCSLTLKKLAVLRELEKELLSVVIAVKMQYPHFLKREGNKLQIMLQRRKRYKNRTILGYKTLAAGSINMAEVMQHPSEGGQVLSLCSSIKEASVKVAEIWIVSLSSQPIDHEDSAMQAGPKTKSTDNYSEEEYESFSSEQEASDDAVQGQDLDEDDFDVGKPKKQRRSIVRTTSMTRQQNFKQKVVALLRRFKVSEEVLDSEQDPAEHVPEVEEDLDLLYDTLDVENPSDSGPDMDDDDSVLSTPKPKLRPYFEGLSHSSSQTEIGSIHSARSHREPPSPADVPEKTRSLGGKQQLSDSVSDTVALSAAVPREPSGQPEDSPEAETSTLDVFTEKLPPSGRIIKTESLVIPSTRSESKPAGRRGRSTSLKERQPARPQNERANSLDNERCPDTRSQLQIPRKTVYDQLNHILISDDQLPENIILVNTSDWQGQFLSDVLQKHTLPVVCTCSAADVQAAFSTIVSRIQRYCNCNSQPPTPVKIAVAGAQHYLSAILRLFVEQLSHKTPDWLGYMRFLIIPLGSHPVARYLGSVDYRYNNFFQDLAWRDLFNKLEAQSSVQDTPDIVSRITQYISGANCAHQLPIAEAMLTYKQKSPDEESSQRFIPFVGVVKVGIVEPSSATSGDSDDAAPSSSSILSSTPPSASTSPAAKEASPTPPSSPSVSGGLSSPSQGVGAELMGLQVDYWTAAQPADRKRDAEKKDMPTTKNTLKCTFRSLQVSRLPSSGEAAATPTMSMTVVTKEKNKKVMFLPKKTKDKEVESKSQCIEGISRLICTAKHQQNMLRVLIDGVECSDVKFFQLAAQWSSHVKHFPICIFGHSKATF
UniProt Q571F8: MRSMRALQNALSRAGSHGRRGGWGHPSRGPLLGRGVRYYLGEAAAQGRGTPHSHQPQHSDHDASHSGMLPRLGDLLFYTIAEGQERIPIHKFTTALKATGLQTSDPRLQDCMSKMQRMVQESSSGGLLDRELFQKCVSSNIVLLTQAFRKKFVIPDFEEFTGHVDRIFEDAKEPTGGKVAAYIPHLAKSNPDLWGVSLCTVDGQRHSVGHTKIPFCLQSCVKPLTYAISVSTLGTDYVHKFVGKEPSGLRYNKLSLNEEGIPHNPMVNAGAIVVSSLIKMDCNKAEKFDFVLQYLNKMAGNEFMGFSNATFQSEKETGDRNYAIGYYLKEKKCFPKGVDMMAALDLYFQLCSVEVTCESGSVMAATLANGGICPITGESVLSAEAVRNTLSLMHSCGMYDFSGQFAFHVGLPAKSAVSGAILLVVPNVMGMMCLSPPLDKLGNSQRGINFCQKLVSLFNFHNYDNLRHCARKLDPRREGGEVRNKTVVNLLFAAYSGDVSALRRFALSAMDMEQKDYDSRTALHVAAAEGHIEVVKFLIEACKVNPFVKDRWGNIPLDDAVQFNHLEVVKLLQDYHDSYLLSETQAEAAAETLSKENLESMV
UniProt Q4VC33: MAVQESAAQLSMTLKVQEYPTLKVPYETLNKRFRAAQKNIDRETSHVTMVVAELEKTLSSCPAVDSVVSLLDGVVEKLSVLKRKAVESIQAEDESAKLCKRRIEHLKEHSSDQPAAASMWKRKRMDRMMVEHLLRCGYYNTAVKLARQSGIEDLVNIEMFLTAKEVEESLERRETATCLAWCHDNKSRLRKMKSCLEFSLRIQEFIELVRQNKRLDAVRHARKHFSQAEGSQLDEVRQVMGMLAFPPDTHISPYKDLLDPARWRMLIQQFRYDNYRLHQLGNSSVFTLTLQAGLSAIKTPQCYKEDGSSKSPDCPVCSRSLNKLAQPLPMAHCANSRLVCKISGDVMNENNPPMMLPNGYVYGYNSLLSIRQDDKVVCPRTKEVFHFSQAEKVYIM
UniProt Q3USH5: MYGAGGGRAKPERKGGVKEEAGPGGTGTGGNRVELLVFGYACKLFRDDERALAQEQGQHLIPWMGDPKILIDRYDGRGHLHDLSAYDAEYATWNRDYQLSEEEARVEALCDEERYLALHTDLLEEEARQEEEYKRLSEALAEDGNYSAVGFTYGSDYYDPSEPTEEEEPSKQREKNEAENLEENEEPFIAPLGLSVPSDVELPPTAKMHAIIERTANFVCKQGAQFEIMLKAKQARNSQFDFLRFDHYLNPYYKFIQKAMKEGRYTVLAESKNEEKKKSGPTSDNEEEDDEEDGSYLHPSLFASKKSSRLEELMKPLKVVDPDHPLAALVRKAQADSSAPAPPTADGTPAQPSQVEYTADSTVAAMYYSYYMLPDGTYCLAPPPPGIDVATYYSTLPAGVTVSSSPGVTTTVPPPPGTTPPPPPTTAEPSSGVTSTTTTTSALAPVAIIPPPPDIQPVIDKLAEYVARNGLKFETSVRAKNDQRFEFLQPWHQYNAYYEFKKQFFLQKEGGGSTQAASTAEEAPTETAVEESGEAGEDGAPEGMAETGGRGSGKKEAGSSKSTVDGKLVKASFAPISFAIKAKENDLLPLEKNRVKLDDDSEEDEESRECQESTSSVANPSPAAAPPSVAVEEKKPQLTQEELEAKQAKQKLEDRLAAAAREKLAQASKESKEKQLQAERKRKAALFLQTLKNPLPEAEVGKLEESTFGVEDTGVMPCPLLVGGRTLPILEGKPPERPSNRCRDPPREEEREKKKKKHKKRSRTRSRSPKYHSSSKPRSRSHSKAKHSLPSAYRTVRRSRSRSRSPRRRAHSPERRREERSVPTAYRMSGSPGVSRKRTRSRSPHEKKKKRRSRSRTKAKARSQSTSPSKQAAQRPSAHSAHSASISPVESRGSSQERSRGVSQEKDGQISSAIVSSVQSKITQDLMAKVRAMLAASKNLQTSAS
UniProt Q3UVK0: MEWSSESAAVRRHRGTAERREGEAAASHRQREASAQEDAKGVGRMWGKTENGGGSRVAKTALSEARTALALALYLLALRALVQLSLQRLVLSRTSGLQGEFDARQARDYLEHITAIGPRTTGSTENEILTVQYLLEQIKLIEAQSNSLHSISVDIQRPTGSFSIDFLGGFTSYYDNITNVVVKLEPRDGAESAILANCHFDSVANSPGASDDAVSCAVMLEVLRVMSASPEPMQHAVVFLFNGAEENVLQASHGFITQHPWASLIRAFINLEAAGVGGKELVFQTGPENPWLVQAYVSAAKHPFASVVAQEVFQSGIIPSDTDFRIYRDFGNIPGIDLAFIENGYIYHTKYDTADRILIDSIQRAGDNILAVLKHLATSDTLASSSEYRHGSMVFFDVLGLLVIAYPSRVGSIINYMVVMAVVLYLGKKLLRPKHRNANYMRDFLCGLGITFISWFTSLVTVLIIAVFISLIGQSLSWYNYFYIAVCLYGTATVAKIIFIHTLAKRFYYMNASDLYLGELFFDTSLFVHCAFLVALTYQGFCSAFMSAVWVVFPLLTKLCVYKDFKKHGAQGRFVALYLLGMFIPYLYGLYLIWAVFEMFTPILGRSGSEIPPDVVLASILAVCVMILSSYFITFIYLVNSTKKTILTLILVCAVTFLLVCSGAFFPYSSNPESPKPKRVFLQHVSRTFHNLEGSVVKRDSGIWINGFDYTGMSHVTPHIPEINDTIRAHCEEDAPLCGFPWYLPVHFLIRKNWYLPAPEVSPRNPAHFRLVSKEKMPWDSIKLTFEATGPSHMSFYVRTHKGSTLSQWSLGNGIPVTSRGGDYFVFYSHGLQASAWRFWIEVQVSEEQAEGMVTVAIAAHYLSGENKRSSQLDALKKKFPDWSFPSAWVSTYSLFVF
UniProt Q5DTI6: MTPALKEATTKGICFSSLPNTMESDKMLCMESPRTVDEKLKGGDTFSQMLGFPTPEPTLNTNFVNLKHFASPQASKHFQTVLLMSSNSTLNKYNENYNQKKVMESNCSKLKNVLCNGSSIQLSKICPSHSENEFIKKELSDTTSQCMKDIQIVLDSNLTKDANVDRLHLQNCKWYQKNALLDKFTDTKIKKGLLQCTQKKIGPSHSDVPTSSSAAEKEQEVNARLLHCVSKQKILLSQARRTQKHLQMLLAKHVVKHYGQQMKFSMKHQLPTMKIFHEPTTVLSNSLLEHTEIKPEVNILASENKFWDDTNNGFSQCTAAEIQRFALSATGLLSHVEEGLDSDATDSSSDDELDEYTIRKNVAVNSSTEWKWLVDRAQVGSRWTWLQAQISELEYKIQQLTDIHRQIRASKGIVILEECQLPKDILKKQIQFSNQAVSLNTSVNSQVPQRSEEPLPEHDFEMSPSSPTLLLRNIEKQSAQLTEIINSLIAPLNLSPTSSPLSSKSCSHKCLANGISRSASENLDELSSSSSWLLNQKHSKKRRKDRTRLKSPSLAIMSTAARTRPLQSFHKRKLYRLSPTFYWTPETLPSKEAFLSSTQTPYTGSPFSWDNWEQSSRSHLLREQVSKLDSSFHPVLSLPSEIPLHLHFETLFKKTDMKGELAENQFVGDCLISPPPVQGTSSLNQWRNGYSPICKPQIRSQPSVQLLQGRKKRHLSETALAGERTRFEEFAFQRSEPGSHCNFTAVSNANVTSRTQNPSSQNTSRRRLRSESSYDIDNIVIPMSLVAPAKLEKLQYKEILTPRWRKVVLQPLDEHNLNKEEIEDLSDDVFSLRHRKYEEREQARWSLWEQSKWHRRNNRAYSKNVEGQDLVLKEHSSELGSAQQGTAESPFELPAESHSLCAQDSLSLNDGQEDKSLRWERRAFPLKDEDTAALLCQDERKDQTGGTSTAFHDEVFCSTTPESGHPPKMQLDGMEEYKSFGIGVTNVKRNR
UniProt Q3UIW5: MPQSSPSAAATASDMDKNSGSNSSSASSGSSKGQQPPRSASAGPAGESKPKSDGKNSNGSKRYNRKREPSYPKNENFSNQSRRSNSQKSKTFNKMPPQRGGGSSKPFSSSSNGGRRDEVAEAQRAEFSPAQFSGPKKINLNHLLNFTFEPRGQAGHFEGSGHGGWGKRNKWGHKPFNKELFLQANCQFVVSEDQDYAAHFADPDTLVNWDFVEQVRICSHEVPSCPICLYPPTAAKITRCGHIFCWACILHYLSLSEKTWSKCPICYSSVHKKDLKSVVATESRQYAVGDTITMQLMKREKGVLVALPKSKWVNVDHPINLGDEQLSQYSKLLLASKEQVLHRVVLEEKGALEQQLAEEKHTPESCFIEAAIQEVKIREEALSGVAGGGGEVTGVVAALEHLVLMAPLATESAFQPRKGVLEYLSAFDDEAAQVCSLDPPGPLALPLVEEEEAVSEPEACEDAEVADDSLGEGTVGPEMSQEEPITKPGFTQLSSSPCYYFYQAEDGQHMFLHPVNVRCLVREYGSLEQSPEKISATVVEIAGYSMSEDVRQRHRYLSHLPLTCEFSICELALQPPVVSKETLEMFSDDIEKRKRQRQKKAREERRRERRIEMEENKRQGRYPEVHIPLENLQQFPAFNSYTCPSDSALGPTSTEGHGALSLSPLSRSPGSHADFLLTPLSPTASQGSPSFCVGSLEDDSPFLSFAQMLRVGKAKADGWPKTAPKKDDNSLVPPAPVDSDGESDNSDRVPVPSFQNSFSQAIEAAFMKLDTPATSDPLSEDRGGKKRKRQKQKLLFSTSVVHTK
UniProt Q3UZZ6: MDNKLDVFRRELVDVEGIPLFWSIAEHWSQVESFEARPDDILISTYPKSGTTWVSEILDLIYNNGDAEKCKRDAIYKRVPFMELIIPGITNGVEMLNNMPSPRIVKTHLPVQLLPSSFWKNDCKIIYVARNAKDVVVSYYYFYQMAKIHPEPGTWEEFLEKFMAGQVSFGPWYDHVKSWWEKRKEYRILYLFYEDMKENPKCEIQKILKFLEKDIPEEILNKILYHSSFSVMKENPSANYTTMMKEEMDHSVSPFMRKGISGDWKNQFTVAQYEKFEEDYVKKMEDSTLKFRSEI
UniProt Q3UNA4: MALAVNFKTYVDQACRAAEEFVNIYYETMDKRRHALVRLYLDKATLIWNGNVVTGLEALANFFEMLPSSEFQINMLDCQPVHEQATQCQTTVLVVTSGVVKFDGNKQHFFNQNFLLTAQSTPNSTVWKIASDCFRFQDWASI
UniProt Q3UJP5: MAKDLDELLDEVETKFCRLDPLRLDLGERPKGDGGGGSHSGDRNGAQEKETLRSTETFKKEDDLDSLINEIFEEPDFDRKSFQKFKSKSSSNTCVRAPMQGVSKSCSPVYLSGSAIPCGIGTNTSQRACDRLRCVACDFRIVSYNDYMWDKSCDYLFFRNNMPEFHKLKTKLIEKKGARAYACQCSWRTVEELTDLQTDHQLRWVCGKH

Compound in the assay: CN[C@@H]1C[C@H]2O[C@@](C)([C@@H]1OC)n1c3ccccc3c3c4c(c5c6ccccc6n2c5c31)C(=O)NC4 [staurosporine]
Description: log2 fold change of tryptic peptide abundance, ligand vs vehicle (limited proteolysis) (log2 ratio); higher = more trypsin-susceptible (destabilized). The settings on record: ligand concentration: 20 uM; sample: mouse liver crude lysate; replicate design: treated separately.
Take “UniProt Q4PJX1 (peptide sequence: VLTQLLLNSDHR, peptide start residue: 255)”: the log2 fold change turned out to be 0.253.

“UniProt Q3U829 (peptide sequence: LGEDPGSER, peptide start residue: 356)”: the log2 fold change was found to be 0.362.

As for “UniProt Q3V3Q7 (peptide sequence: IAVAGAQHYLSAILR, peptide start residue: 522)”, the log2 fold change is 0.33.

As for “UniProt Q571F8 (peptide sequence: IFEDAKEPTGGK, peptide start residue: 167)”, the log2 fold change was -0.175.

Consider “UniProt Q3ZK22 (peptide sequence: KDDFYHLSQEDR, peptide start residue: 558)”, for which the log2 fold change is -0.251.

As to “UniProt Q3UHI4 (peptide sequence: KVSPPLMAPPCVWTFAK, peptide start residue: 152)”, the log2 fold change was determined as 1.11.

With “UniProt Q4QRL3 (peptide sequence: RTEAEAHQEAEAQAR, peptide start residue: 779)”, the log2 fold change stood at 1.

For the target “UniProt Q4VC33 (peptide sequence: EVFHFSQAEK, peptide start residue: 383)”, the log2 fold change was 0.349.

For the target “UniProt Q3UDK1 (peptide sequence: THPEVCGR, peptide start residue: 130)”, the log2 fold change is -0.325.

For “UniProt Q3USH5 (peptide sequence: TLPILEGKPPERPSNR, peptide start residue: 726)”, the log2 fold change was 0.31.

With “UniProt Q501J2 (peptide sequence: AGCSASVCYHR, peptide start residue: 121)”, the log2 fold change was determined as 0.884.

As for “UniProt Q3V384 (peptide sequence: ALAVCHGPLDHYDFLIK, peptide start residue: 68)”, the log2 fold change was found to be 0.194.

Regarding “UniProt Q3ULB5 (peptide sequence: RELLFNEVVIMR, peptide start residue: 362)”, the log2 fold change is -0.686.

Consider “UniProt Q50H33 (peptide sequence: FFIDRDGFLFR, peptide start residue: 97)”, for which the log2 fold change worked out at 0.281.

As for “UniProt Q3UHK8 (peptide sequence: LLPAASAVSSK, peptide start residue: 1027)”, the log2 fold change is -0.346.

As for “UniProt Q3UVK0 (peptide sequence: EASAQEDAK, peptide start residue: 32)”, the log2 fold change is -0.237.

For “UniProt Q3UHI0 (peptide sequence: SFSGPSNLGK, peptide start residue: 142)”, the log2 fold change came out at 0.459.

On to “UniProt Q5DTM8 (peptide sequence: CDEILMEEIK, peptide start residue: 903)”, for which the log2 fold change stood at 0.468.

Turning to “UniProt Q4FZC9 (peptide sequence: IPEGQHLFENLLR, peptide start residue: 850)”, the log2 fold change worked out at 0.0396.

On to “UniProt Q5DTI6 (peptide sequence: NALLDKFTDTK, peptide start residue: 178)”, for which the log2 fold change is 0.0954.

In the case of “UniProt Q3UB74 (peptide sequence: FDACKPR, peptide start residue: 317)”, the log2 fold change is -0.115.

In the case of “UniProt Q3UQ28 (peptide sequence: AEGNPKPEIIWLR, peptide start residue: 266)”, the log2 fold change amounted to 0.164.

As to “UniProt Q3U3I9 (peptide sequence: FEPMELYGEHAK, peptide start residue: 42)”, the log2 fold change worked out at 0.0549.

Take “UniProt Q3UIW5 (peptide sequence: RDEVAEAQR, peptide start residue: 116)”: the log2 fold change is -0.755.

“UniProt Q3U3D7 (peptide sequence: SCLPVGPSLSR, peptide start residue: 949)”: the log2 fold change was determined as 0.278.

On to “UniProt Q3ULD5 (peptide sequence: ALVSQLHER, peptide start residue: 51)”, for which the log2 fold change was determined as 0.163.

Turning to “UniProt Q3UHB8 (peptide sequence: KLQQEQNLK, peptide start residue: 453)”, the log2 fold change was 0.242.

As for “UniProt Q3UZZ6 (peptide sequence: FMAGQVSFGPWYDHVK, peptide start residue: 162)”, the log2 fold change came to 0.185.

For the target “UniProt Q3UNA4 (peptide sequence: TYVDQACR, peptide start residue: 9)”, the log2 fold change was 0.0728.

With “UniProt Q505D7 (peptide sequence: QVSKPLANR, peptide start residue: 18)”, the log2 fold change was -0.0979.

With “UniProt Q3UJP5 (peptide sequence: LDPLRLDLGERPK, peptide start residue: 19)”, the log2 fold change was 0.149.

Values taken from the supplement of paper PMC12819154, “High-throughput peptide-centric local stability assay extends protein–ligand identification to membrane proteins, tissues and bacteria” (Nature Structural & Molecular Biology, 2025).
